In the supplement of paper PMC10849652:
The list shows a part of the results.

Chains of the proteins cited; added tags and fusions are not shown. Lines headed by an entry give the natural chain unless they say otherwise; changes in a name come on top.
UniProt O95758: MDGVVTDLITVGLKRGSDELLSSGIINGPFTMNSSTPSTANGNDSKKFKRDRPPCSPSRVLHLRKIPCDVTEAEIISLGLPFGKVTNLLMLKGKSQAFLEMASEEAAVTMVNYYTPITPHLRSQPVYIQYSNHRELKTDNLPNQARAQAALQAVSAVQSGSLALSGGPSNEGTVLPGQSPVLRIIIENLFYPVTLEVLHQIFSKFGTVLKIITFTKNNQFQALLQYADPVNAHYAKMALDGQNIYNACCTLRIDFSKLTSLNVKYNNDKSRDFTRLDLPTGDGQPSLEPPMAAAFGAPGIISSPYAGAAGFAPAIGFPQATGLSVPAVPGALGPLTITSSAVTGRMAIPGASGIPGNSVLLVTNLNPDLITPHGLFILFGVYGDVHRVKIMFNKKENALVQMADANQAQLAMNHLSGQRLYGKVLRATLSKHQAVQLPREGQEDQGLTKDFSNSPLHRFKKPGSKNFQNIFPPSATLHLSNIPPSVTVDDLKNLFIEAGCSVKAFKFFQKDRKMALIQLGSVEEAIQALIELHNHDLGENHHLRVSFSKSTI
UniProt Q13200: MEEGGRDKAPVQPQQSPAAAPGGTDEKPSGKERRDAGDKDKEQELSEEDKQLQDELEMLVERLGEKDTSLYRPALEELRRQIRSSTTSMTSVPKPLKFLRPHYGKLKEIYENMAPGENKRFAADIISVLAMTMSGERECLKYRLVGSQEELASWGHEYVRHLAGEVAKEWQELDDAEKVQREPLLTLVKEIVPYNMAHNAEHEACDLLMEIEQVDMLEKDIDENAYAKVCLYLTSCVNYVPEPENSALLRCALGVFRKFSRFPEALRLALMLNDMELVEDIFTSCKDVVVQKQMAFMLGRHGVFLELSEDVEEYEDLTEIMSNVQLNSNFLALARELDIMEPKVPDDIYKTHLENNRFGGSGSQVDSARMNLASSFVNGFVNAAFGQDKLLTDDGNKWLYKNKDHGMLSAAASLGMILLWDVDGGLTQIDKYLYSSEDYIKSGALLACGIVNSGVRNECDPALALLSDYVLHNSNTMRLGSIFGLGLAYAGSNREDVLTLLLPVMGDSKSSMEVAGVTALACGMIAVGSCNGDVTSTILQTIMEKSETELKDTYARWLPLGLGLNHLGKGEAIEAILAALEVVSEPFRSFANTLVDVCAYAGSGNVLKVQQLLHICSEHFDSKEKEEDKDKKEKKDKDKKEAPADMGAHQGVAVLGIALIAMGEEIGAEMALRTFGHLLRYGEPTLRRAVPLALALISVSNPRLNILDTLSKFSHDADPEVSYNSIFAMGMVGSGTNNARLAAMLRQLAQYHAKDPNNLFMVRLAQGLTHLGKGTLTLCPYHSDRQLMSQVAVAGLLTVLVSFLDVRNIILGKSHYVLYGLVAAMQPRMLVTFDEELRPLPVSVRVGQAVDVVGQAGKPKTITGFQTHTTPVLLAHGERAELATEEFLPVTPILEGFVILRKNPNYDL
UniProt Q9BVG9: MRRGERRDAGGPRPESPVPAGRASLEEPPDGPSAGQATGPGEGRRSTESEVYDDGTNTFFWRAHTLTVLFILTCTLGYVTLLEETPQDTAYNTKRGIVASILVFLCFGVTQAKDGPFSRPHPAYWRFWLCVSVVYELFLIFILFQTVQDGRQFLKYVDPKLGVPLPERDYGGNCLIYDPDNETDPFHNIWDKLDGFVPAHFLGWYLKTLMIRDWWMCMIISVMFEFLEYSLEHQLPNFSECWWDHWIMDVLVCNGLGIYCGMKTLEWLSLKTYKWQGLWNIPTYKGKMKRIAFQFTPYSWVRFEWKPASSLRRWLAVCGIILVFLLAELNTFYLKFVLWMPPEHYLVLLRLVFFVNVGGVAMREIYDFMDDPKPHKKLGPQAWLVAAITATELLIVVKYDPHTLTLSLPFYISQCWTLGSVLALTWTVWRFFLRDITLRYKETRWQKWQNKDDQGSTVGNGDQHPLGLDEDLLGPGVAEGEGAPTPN
UniProt Q9NRG1: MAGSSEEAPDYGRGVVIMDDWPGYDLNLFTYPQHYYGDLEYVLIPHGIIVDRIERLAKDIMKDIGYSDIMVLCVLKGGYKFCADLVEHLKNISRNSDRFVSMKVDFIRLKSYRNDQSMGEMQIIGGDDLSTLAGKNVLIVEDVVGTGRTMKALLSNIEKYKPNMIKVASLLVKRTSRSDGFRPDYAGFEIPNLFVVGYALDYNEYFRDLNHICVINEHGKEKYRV
UniProt Q9H939: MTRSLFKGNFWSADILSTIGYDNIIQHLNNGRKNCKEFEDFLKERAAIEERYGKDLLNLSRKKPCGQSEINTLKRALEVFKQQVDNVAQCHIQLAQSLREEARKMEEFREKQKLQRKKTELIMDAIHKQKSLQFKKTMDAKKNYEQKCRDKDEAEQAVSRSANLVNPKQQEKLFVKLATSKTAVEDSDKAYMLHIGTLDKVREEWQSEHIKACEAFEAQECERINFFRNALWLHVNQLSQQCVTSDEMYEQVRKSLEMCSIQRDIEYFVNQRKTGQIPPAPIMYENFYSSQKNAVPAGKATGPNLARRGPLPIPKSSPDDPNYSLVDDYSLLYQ
UniProt Q7Z6K3: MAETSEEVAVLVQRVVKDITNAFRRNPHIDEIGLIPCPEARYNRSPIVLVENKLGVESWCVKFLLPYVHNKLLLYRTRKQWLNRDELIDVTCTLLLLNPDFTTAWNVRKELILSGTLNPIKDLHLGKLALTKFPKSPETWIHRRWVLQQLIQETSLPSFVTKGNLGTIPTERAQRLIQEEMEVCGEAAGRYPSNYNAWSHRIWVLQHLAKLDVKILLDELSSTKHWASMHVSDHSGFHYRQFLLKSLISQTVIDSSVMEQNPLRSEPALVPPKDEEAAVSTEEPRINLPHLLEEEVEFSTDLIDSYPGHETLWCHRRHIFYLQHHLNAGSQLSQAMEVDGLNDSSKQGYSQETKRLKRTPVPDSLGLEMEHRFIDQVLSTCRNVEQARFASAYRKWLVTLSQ
UniProt Q8NDX1: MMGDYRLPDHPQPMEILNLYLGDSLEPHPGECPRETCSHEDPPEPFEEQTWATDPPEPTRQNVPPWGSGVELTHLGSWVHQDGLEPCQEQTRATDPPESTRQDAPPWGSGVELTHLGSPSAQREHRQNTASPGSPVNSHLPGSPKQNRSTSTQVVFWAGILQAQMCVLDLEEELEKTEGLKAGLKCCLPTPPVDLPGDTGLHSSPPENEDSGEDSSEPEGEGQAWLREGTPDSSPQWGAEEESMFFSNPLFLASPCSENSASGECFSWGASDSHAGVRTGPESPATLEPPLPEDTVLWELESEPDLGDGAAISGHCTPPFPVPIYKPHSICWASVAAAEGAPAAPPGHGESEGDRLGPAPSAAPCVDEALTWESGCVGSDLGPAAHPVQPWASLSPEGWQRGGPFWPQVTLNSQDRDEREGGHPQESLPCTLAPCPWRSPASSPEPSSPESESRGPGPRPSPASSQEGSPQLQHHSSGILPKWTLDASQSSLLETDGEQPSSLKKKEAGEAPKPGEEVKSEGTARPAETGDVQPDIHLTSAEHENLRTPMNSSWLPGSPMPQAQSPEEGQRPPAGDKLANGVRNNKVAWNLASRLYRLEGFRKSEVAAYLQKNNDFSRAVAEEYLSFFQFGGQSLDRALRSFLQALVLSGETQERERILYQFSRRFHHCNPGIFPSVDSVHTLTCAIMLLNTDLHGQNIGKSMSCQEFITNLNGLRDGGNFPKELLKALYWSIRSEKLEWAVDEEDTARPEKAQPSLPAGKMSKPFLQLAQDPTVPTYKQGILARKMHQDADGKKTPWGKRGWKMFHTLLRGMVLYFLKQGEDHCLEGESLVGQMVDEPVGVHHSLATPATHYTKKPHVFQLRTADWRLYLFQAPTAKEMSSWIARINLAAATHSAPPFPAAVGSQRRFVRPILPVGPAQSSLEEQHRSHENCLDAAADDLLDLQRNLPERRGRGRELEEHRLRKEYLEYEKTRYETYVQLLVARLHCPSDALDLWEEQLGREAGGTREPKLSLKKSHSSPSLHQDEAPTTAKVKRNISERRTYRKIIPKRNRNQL
UniProt P61289: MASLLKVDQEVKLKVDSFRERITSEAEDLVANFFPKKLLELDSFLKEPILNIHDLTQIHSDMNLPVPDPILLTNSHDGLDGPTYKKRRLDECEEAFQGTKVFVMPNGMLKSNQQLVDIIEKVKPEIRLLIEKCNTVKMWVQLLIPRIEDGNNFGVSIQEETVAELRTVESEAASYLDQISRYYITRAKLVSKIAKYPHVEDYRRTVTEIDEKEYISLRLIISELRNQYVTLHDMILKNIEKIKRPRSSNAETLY
UniProt P62191: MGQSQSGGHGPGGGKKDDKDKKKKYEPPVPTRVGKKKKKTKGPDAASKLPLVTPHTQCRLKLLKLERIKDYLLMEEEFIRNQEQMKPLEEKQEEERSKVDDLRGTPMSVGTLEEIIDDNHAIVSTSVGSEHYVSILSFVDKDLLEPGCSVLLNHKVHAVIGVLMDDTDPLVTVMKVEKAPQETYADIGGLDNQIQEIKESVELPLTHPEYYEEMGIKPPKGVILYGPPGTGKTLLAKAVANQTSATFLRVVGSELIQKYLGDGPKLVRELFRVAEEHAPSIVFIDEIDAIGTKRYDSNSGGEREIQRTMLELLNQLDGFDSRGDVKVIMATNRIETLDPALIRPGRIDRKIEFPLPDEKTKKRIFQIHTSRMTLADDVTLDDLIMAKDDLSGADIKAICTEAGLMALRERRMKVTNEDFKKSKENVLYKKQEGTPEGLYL
UniProt P25786: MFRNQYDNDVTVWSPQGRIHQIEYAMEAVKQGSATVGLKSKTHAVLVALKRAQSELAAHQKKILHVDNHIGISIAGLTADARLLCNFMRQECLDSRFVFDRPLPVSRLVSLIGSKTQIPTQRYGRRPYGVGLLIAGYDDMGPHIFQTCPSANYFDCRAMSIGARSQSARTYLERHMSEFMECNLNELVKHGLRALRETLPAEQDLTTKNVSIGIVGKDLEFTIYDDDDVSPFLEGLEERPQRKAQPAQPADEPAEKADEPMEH
UniProt P28066: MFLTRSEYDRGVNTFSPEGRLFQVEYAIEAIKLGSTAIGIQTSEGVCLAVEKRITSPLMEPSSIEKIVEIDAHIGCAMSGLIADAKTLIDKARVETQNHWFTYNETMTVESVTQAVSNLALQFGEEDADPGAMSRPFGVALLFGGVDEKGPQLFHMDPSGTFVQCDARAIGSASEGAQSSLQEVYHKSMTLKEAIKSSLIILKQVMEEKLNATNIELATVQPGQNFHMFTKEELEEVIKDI
UniProt Q6GMV3: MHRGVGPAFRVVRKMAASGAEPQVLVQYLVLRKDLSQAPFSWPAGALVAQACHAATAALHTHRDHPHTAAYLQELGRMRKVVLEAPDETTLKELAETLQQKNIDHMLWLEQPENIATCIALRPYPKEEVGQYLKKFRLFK
UniProt Q99460, whole entry, looked up: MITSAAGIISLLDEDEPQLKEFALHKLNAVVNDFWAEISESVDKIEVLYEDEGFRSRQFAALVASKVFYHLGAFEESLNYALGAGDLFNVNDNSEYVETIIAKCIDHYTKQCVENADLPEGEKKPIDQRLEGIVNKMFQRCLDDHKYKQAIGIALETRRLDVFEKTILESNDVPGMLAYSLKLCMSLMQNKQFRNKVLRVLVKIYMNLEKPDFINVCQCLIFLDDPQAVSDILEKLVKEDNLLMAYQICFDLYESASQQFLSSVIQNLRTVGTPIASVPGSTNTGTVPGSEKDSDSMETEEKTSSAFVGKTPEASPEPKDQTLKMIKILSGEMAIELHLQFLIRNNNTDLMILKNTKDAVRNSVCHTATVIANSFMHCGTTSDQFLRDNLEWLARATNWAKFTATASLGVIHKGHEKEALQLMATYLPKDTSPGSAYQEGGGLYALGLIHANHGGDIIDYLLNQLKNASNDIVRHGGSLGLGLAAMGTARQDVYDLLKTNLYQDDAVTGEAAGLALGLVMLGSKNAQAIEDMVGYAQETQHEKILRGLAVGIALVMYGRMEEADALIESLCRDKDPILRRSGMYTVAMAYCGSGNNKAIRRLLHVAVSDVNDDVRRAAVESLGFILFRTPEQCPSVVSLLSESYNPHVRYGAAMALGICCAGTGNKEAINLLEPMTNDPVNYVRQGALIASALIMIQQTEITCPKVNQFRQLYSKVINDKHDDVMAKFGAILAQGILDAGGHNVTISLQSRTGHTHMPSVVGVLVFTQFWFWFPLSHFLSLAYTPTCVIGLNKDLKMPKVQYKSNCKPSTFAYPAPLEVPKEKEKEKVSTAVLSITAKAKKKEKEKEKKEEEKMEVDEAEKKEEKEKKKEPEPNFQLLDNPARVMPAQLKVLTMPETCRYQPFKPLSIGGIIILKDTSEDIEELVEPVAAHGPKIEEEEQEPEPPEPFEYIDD
UniProt P20618: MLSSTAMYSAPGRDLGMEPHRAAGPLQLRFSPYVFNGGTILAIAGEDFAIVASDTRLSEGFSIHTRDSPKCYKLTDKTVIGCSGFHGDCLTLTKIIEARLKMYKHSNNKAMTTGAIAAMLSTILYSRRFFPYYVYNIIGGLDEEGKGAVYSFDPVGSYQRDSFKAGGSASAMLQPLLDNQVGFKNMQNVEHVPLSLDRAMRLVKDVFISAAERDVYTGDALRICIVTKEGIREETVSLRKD

Legend:
Assay in all cases: log2 fold change, soluble protein after heating vs DMSO (PISA); higher = thermal stabilisation; K562 lysate, 10 uM; active = over 0.2 and 3.5 SD of the protein, either way, in both replicates (recomputed)
alvocidib = compound: CN1CC[C@H](c2c(O)cc(O)c3c(=O)cc(-c4ccccc4Cl)oc23)[C@H](O)C1 [alvocidib]
How it was run: (§1)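 Dounce homogenisation of K562 pellets in PBS pH 7.4 with 1 mM MgCl2 produced a crude extract, used at 1 mg/mL protein. Exposure to 10 μM compound lasted 30 min, and aliquots were then heated for 3 min across 48°C-58°C, pooled and brought to 0.5% NP-40 at 4°C. The supernatant after 21,000xg for 90 min was quantified by TMTpro 16plex LC-MS/MS with channel sums equalised. Duplicate values are given as log-two fold change in thermal stability relative to solvent controls.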

Tubastatin A = compound: CN1CCc2c(c3ccccc3n2Cc2ccc(C(=O)NO)cc2)C1 [Tubastatin A]
How it was run: as §1

[1] = compound: CNC(=O)C1=CC=CC=C1NC2=NC(=NC=C2Cl)NC3=C(C=C(C=C3)N4CCOCC4)OC
How it was run: as §1

defactinib = compound: CNC(=O)c1ccc(Nc2ncc(C(F)(F)F)c(NCc3nccnc3N(C)S(C)(=O)=O)n2)cc1 [defactinib]
How it was run: as §1

[2] = compound: CNc1nc(-c2ccc3c(N)n[nH]c3c2)cc(N2C[C@@H](C(=O)NC3CCCCC3)CC[C@H]2C)n1
How it was run: as §1

encorafenib = compound: COC(=O)N[C@@H](C)CNc1nccc(-c2cn(C(C)C)nc2-c2cc(Cl)cc(NS(C)(=O)=O)c2F)n1 [encorafenib]
How it was run: as §1

[3] = compound: COC(=O)[C@H](CCSC)NC(=O)C1=C(C=C(C=C1)NC[C@H](CS)N)C2=CC=CC=C2
How it was run: as §1

alisertib = compound: COc1cc(Nc2ncc3c(n2)-c2ccc(Cl)cc2C(c2c(F)cccc2OC)=NC3)ccc1C(=O)O [alisertib]
How it was run: as §1

[4] = compound: COc1cc2nc(-c3cc(F)ccc3O)nc(N[C@@H]3CNC[C@H]3C(C)(C)O)c2cc1OC
How it was run: as §1

gefitinib = compound: COc1cc2ncnc(Nc3ccc(F)c(Cl)c3)c2cc1OCCCN1CCOCC1 [gefitinib]
How it was run: as §1

lapatinib = compound: CS(=O)(=O)CCNCc1ccc(-c2ccc3ncnc(Nc4ccc(OCc5cccc(F)c5)c(Cl)c4)c3c2)o1 [lapatinib]
How it was run: as §1

pictilisib = compound: CS(=O)(=O)N1CCN(Cc2cc3nc(-c4cccc5[nH]ncc45)nc(N4CCOCC4)c3s2)CC1 [pictilisib]
How it was run: as §1

crizotinib = compound: C[C@@H](Oc1cc(-c2cnn(C3CCNCC3)c2)cnc1N)c1c(Cl)ccc(F)c1Cl [crizotinib]
How it was run: as §1

[5] = compound: C[C@H](C1=CC=C(C=C1)C(=O)NC2=C3C=CNC3=NC=C2)N
How it was run: as §1

duvelisib = compound: C[C@H](Nc1ncnc2nc[nH]c12)c1cc2cccc(Cl)c2c(=O)n1-c1ccccc1 [duvelisib]
How it was run: as §1

gandotinib = compound: Cc1cc(Nc2cc(CN3CCOCC3)c3nc(C)c(Cc4ccc(Cl)cc4F)n3n2)n[nH]1 [gandotinib]
How it was run: as §1

tozasertib = compound: Cc1cc(Nc2cc(N3CCN(C)CC3)nc(Sc3ccc(NC(=O)C4CC4)cc3)n2)n[nH]1 [tozasertib]
How it was run: as §1

doramapimod = compound: Cc1ccc(-n2nc(C(C)(C)C)cc2NC(=O)Nc2ccc(OCCN3CCOCC3)c3ccccc23)cc1 [doramapimod]
How it was run: as §1

bafetinib = compound: Cc1ccc(NC(=O)c2ccc(CN3CC[C@H](N(C)C)C3)c(C(F)(F)F)c2)cc1Nc1nccc(-c2cncnc2)n1 [bafetinib]
How it was run: as §1

[6] = compound: Cc1cccc(CC(=O)N2CCc3c2ccc(-c2cn(C)c4ncnc(N)c24)c3F)n1
How it was run: as §1

Measured: log2 fold change

PTBP3 isoform 4 (UniProt O95758)
inactive: alvocidib 0.027 | Tubastatin A -0.058 | [1] -0.01 | defactinib 0.004 | [2] 0.048 | encorafenib -0.001 | [3] 0.047 | alisertib 0 | [4] -0.016 | gefitinib 0.015 | lapatinib 0.003 | pictilisib 0.009 | crizotinib -0.024 | [5] -0.019 | duvelisib -0.02 | gandotinib 0.022 | tozasertib 0.006 | doramapimod 0.042 | bafetinib -0.003 | [6] 0.012

PSMD2 (UniProt Q13200)
inactive: alvocidib 0.027 | Tubastatin A -0.004 | [1] 0.015 | defactinib -0.003 | [2] 0.019 | encorafenib -0.006 | [3] 0.063 | alisertib 0.012 | [4] 0 | gefitinib 0.005 | lapatinib -0.006 | pictilisib 0.001 | crizotinib -0.014 | [5] 0.059 | duvelisib 0.001 | gandotinib -0.067 | tozasertib -0.008 | doramapimod 0.003 | bafetinib -0.031 | [6] -0.037

PTDSS2 (UniProt Q9BVG9)
inactive: alvocidib -0.184 | Tubastatin A 0.003 | [1] 0.013 | defactinib 0.032 | [2] -0.044 | encorafenib 0.152 | [3] 0.067 | alisertib 0.021 | [4] -0.027 | gefitinib 0.019 | lapatinib -0.045 | pictilisib -0.102 | crizotinib 0.015 | [5] -0.248 | duvelisib -0.008 | gandotinib 0.01 | tozasertib 0.001 | doramapimod -0.048 | bafetinib 0.073 | [6] 0.087

PRTFDC1 (UniProt Q9NRG1)
inactive: alvocidib 0.078 | Tubastatin A 0.017 | [1] -0.021 | defactinib -0.05 | [2] 0.034 | encorafenib -0.037 | [3] -0.047 | alisertib 0.024 | [4] -0.013 | gefitinib -0.015 | lapatinib -0.017 | pictilisib 0.038 | crizotinib 0.077 | [5] 0.003 | duvelisib -0.027 | gandotinib 0.014 | tozasertib 0.006 | doramapimod -0.034 | bafetinib 0.036 | [6] -0.1

PTDSS1 (UniProt P48651)
inactive: alvocidib -0.089 | Tubastatin A -0.08 | [1] -0.056 | defactinib 0.085 | [2] 0.023 | encorafenib 0.059 | [3] -0.166 | alisertib -0.032 | [4] -0.078 | gefitinib 0.118 | lapatinib -0.065 | pictilisib 0.048 | crizotinib -0.059 | [5] -0.026 | duvelisib -0.005 | gandotinib -0.229 | tozasertib 0.103 | doramapimod -0.022 | bafetinib -0.134 | [6] 0.126

PSTPIP2 (UniProt Q9H939)
inactive: alvocidib -0.006 | Tubastatin A -0.04 | [1] 0.031 | defactinib -0.016 | [2] 0.026 | encorafenib 0.023 | [3] 0.002 | alisertib -0.052 | [4] -0.03 | gefitinib -0.028 | lapatinib 0.009 | pictilisib 0.019 | crizotinib -0.047 | [5] 0.062 | duvelisib -0.023 | gandotinib -0.095 | tozasertib 0.012 | doramapimod 0.002 | bafetinib -0.014 | [6] -0.027

PTAR1 (UniProt Q7Z6K3)
inactive: alvocidib 0.004 | Tubastatin A 0.006 | [1] 0.027 | defactinib -0.039 | [2] 0.032 | encorafenib -0.041 | [3] 0.11 | alisertib -0.004 | [4] 0.01 | gefitinib -0.01 | lapatinib 0.007 | pictilisib 0.011 | crizotinib -0.032 | [5] -0.019 | duvelisib -0.036 | gandotinib 0.008 | tozasertib -0.089 | doramapimod 0.057 | bafetinib 0.082 | [6] 0

PSD4 (UniProt Q8NDX1)
inactive: alvocidib 0.01 | Tubastatin A -0.093 | [1] 0.003 | defactinib 0.057 | [2] -0.016 | encorafenib 0.024 | [3] 0.006 | alisertib 0.011 | [4] 0.012 | gefitinib -0.002 | lapatinib -0.02 | pictilisib -0.026 | crizotinib -0.098 | [5] 0.013 | duvelisib 0.018 | gandotinib -0.075 | tozasertib -0.009 | doramapimod -0.03 | bafetinib -0.109 | [6] -0.003

Quoted at random: two entries already listed
PSD4 (UniProt Q8NDX1)
inactive: alvocidib 0.01 | Tubastatin A -0.093 | [1] 0.003 | defactinib 0.057 | [2] -0.016 | encorafenib 0.024 | [3] 0.006 | alisertib 0.011 | [4] 0.012 | gefitinib -0.002 | lapatinib -0.02 | pictilisib -0.026 | crizotinib -0.098 | [5] 0.013 | duvelisib 0.018 | gandotinib -0.075 | tozasertib -0.009 | doramapimod -0.03 | bafetinib -0.109 | [6] -0.003

PRTFDC1 (UniProt Q9NRG1)
inactive: alvocidib 0.078 | Tubastatin A 0.017 | [1] -0.021 | defactinib -0.05 | [2] 0.034 | encorafenib -0.037 | [3] -0.047 | alisertib 0.024 | [4] -0.013 | gefitinib -0.015 | lapatinib -0.017 | pictilisib 0.038 | crizotinib 0.077 | [5] 0.003 | duvelisib -0.027 | gandotinib 0.014 | tozasertib 0.006 | doramapimod -0.034 | bafetinib 0.036 | [6] -0.1

Continuation.

PSME3 isoform 2 (UniProt P61289)
inactive: alvocidib -0.007 | Tubastatin A 0.012 | [1] -0.01 | defactinib -0.029 | [2] -0.052 | encorafenib 0.014 | [3] -0.044 | alisertib 0.007 | [4] 0.014 | gefitinib 0.002 | lapatinib 0.009 | pictilisib 0.008 | crizotinib 0.054 | [5] -0.018 | duvelisib 0.04 | gandotinib -0.015 | tozasertib 0.025 | doramapimod 0.014 | bafetinib 0.015 | [6] -0.035

PSMC1 (UniProt P62191)
inactive: alvocidib -0.01 | Tubastatin A -0.028 | [1] 0.013 | defactinib -0.008 | [2] -0.026 | encorafenib -0.01 | [3] 0.087 | alisertib 0.018 | [4] -0.008 | gefitinib -0.008 | lapatinib -0.015 | pictilisib 0.012 | crizotinib -0.023 | [5] 0.014 | duvelisib -0.015 | gandotinib -0.043 | tozasertib 0.001 | doramapimod 0.021 | bafetinib -0.002 | [6] 0.011

PSMA1 isoform 2 (UniProt P25786)
inactive: alvocidib 0.013 | Tubastatin A 0.036 | [1] 0.002 | defactinib -0.023 | [2] 0.031 | encorafenib -0.017 | [3] -0.027 | alisertib -0.004 | [4] 0.023 | gefitinib -0.017 | lapatinib -0.007 | pictilisib -0.001 | crizotinib 0.037 | [5] 0.009 | duvelisib 0.016 | gandotinib 0.02 | tozasertib -0.005 | doramapimod -0.016 | bafetinib 0.022 | [6] -0.017

PSMA5 (UniProt P28066)
inactive: alvocidib -0.037 | Tubastatin A 0.029 | [1] -0.007 | defactinib -0.006 | [2] 0.01 | encorafenib -0.027 | [3] -0.011 | alisertib -0.019 | [4] 0.004 | gefitinib 0 | lapatinib -0.015 | pictilisib 0.018 | crizotinib -0.003 | [5] -0.029 | duvelisib 0.031 | gandotinib 0.026 | tozasertib -0.017 | doramapimod -0.001 | bafetinib 0 | [6] 0.014

PTRHD1 (UniProt Q6GMV3)
inactive: alvocidib 0.152 | Tubastatin A 0.14 | [1] 0.04 | defactinib 0.074 | [2] 0.051 | encorafenib 0.001 | [3] 0.016 | alisertib 0.036 | [4] -0.069 | gefitinib -0.242 | lapatinib 0.101 | pictilisib -0.03 | crizotinib -0.031 | [5] 0.18 | duvelisib -0.03 | gandotinib -0.055 | tozasertib 0.063 | doramapimod 0.003 | bafetinib -0.162 | [6] -0.088

PSMD1 (UniProt Q99460)
inactive: alvocidib 0.018 | Tubastatin A -0.027 | [1] -0.001 | defactinib 0.001 | [2] 0.005 | encorafenib -0.01 | [3] 0.043 | alisertib 0.007 | [4] -0.001 | gefitinib -0.005 | lapatinib 0.013 | pictilisib 0.015 | crizotinib -0.026 | [5] 0.02 | duvelisib 0.02 | gandotinib -0.057 | tozasertib -0.021 | doramapimod 0.028 | bafetinib -0.012 | [6] -0.011

PSMB1 (UniProt P20618)
inactive: alvocidib 0.009 | Tubastatin A 0.046 | [1] 0.011 | defactinib -0.012 | [2] 0.044 | encorafenib 0.008 | [3] -0.012 | alisertib -0.024 | [4] 0.012 | gefitinib -0.04 | lapatinib -0.011 | pictilisib 0.006 | crizotinib 0.007 | [5] -0.003 | duvelisib -0.006 | gandotinib 0.03 | tozasertib 0.019 | doramapimod -0.009 | bafetinib -0.031 | [6] 0.007

PTP4A1 (UniProt Q93096)
inactive: alvocidib 0.05 | Tubastatin A 0.033 | [1] 0.023 | defactinib 0.033 | [2] 0.023 | encorafenib 0.006 | [3] -0.006 | alisertib -0.056 | [4] -0.015 | gefitinib 0.049 | lapatinib -0.002 | pictilisib 0.008 | crizotinib 0.09 | [5] 0.133 | duvelisib 0.023 | gandotinib -0.031 | tozasertib 0.001 | doramapimod -0.009 | bafetinib -0.042 | [6] -0.055
